Screen size: about 52,000 sequences; about 210 (0.4%) were called active.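 Rule for the calls: active = gene whose silencing raises cell survival under the drug, median off-target-corrected z-score across its silencing RNAs 2 or more; inactive = the rest.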 The list shows a part of the results.
Test: Resistance to Poly (ADP-Ribose) Polymerase inhibitor: Gene Identification via Genome-wide siRNA Screen
Settings: mouse BRCA2 R2336H ES cells, olaparib, CellTiter-Glo viability; active compounds read high
Method in brief: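 Genome-wide siRNA screen (3 siRNAs/gene, 20 nM) in mouse ES cells carrying hypomorphic BRCA2 R2336H; olaparib 500 nM added 48 h post-transfection, CellTiter-Glo viability 72 h later. Normalized to plate-median negative control; MAD z-scores, gene median, seed-adjusted.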

| Sequence | z-score |
| --- | --- |
| GGAGGAACAGAGUUUGCACTT against Olfr642 | inactive: 1.83 |
| GGUCCUCAGAUUUUGGGACTT against Sorcs2 | inactive: -0.783 |
| GCUACGUGUACCUGGAGUGTT against Cpeb1 | inactive: 0.0154 |
| GGAAAAAUCCAAGAAGCAATT against 5730454B08Rik | inactive: -0.909 |
| GGUCAACCUCAAAGUCUUUTT against Il17 | inactive: -1.19 |
| GGGAUGCAUCAAAAUACAATT against Pdk3 | inactive: -0.364 |
| CCUACUUUGGACUCUUUCATT against Tnfsf12 | inactive: -0.979 |
| CGAACAGAUGCUUAAUGUCTT against 4930542G03Rik | inactive: 0.895 |
| GGCAGAAGAAAUCUUAAAUTT against Dnali1 | inactive: 0.593 |
| GGUUUUAGGGUUUUUAACATT against Edg4 | inactive: 0.299 |
| GGGAUUGCUCACAUCUCUGTT against SIRP-beta | inactive: -0.441 |
| GGACAGACGUGCACUUAGATT against Garnl3 | inactive: -1.07 |
| GCAGACGAAUAAAUAGCUGTT against Capza1 | inactive: 1.21 |
| CCUGAUCCUGACUAACCGUTT against Htr2b | inactive: 0.13 |
| GCUCACUAACUUUUACAAGTT against 1700001C02Rik | inactive: 0.374 |
| GACUAAGCAGUGGAAGAGCTT against Krtap21-1 | inactive: -0.359 |
| GCUGAUCAGAGACCAUUACTT against 2610528E23Rik | inactive: -0.319 |
| GCUCCUCAUGAUAUUGGCCTT against Nagk | inactive: 0.324 |
| CCCUCUCCCUUCAAUGUGGTT against Gif | inactive: -0.382 |
| GGCCUUCCUCUUCUGCUUATT against Csf3r | inactive: -0.772 |
| GGCCAACCCAGAGAGUACUTT against Hrpt2 | inactive: -1.07 |
| GGUAGAGAAUUGAAACCUATT against 2410127E18Rik | inactive: 1.73 |
| GGAGUUUCAAAGUGCGAGUTT against Rin1 | inactive: 0.723 |
| GGCUCAAAUUCGAAAACACTT against Zfp235 | inactive: 1.9 |
| GCAUUGGGCAAAUGUCUGGTT against Olfr933 | inactive: 1.26 |
| AUAGUGGAACCCUUUGUACTT against Olfr1195 | inactive: 0.509 |

| Sequence | z-score |
| --- | --- |
| GGCCGUUAUUAAAUUCAUATT against Twsg1 | inactive: 0.585 |
| GGGAACACAAAACCAUUUCTT against Olfr1299 | inactive: -1.71 |
| GGAAUACGACAGAACUCCATT against Extl1 | inactive: -0.291 |
| GGCAGCUUGUAAAAAUCCATT against 2810002O09Rik | inactive: 1.3 |
| CCAUACGUUUUUCAGAAUGTT against Epb4.1l4a | inactive: 0.999 |
| GGUUUCGAACUGAUGAAGCTT against Sdccag1 | inactive: 0.0253 |
| GGAAACCUGCAUCCUAUGATT against Olfr195 | inactive: -2.84 |
| GGAGGUUUUACUCAAACAUTT against Sec14l2 | inactive: 1.08 |
| CGACAUUUGUGUUAACCAUTT against Gprc5c | inactive: -1 |
| GGCCAUCAAAGAAACUAGCTT against Tas2r139 | inactive: 0.0695 |
| GGAUAUCCUUACAAGGACCTT against B230339H12Rik | inactive: 0.949 |
| GGUCAAUGAACAGCACCGGTT against Igfbp2 | inactive: 0.152 |
| GGGAUGACUUUAAUAUCAATT against Pscd3 | inactive: -1.9e-10 |
| CGGAAAACAAUAUCGUGAATT against H2-Ke2 | inactive: -0.198 |
| GGCACUGUGUGUCAGACAATT against Nt5c2l1 | inactive: -0.249 |
| GGUGAACAAAGGAAAGAAUTT against Trpv2 | inactive: -0.475 |
| GGAAAAGAGCUCGUCUCAGTT against Il15 | inactive: 0.67 |
| GCUUGUUCGAGCAAGCAAGTT against Ccnt1 | inactive: -0.474 |
| GCUAAGUAAUCAAUUGCUATT against Bhlhb2 | inactive: 1.35 |
| CCUGUUUCUAGAGCUGGAGTT against A630001O12Rik | inactive: 1 |
| AAAACAACCUAUUCAAGGATT against Ngfg | inactive: 0.642 |
| CCACCAUGUUUUAUUCCAATT against 2010001H14Rik | inactive: -1.57 |
| GGAAGACUUCGUGUUGACATT against Proz | inactive: -0.913 |
| GGCUCAAAGUUUUCAGAGATT against Kctd14 | inactive: -0.776 |
| GGUGACACCCAGAAUGAGCTT against Htatsf1 | inactive: -0.0177 |
| GGAUAAUCUUGCUGAAAACTT against Scgf | inactive: 0.415 |

| Sequence | z-score |
| --- | --- |
| CGACGAAUCUCACACGCUGTT against H2-T23 | inactive: 1.73 |
| CAUUUACAUUCUUAUUACCTT against Olfr473 | inactive: -0.963 |
| GGAGAAAAAAUACUUGAUGTT against Ppm1d | inactive: 2.41 |
| GGCUGGAGAGGAAAUGAAUTT against Mrpl51 | inactive: 0.434 |
| CGCGCUGCCAGAUACACUATT against Hist1h2bg | inactive: 0.26 |
| GCUUAGCCAUCAAUGAGGATT against Cog6 | inactive: -1.53 |
| GGUGGUCCAGAAUUUUGCATT against Cotl1 | inactive: 0.677 |
| GGUUACUUUUAUCCUGAAUTT against Hrasls | inactive: 0.396 |
| CCCUUUGUGUCCUAGAUUGTT against Tex27 | inactive: 0.164 |
| GGAACUUUUCAUCCUGAAGTT against Fgl1 | inactive: -0.334 |
| GCUCUGUCGUGAAGAAUGCTT against F11 | inactive: -1.15 |
| GGAACUAUAUACGAUGAUGTT against Usp8 | inactive: -0.657 |
| GGAGAUUCACUUUCUAUCUTT against C76566 | inactive: 1.21 |
| GGUGGACAACGUGUUUGACTT against 9430023L20Rik | inactive: 0.163 |
| GGAUACCUACCUGGACAGUTT against Dlgap4 | inactive: -2.03 |
| GCUGGAAAUGACACUGCCUTT against C1qtnf7 | inactive: -1.73 |
| CGUGAUUAUGGUCGGUGCUTT against Ube2m | inactive: 0.6 |
| CGAGCGACUAGAAAAUGACTT against Tusc4 | inactive: -0.223 |
| GGCAGAGCAUUUUGAUUUUTT against Cstf2t | inactive: -1.05 |
| GGAACUGUCAAACUGAUUUTT against Tlm | inactive: -0.447 |
| GCAAAUCCCUCACUAAUUUTT against 2410004N11Rik | inactive: -0.486 |
| CGUUGGUUGAUUAUUACCUTT against Tsc1 | inactive: 0.447 |
| GCAACAAUGGUAACCCUCCTT against Ctsg | inactive: 0.448 |
| GCGGACUAGCAGAGCUAUUTT against Dgkq | inactive: -0.988 |
| GGCCUUCCUUCCCUUAGAGTT against D4Ertd196e | inactive: 1.48 |
| GCUUACCUAACAAAUACAATT against Ptplb | inactive: -1.37 |

| Sequence | z-score |
| --- | --- |
| GAGCACAUCAUGGAACAUCTT against Mcfd2 | inactive: -0.0387 |
| GGAGAAACUUAAGAGGCUUTT against Trp53bp2 | inactive: -1.42 |
| GCCACAAGAAUCUCAUUGUTT against C130046B21Rik | inactive: -0.569 |
| CCCUGCAUUAGAAAUUGAATT against Sst | inactive: 0.811 |
| GCUACUUCAUGGAAUCUUCTT against Mrgprb8 | inactive: -0.283 |
| GCCUAUCAUUAACAAGUCATT against A430033K04 | inactive: 0.829 |
| GGCCUAAGCAAGUUGCGCATT against Fbxl8 | inactive: 1.69 |
| GCCUAAUUUUGUGUAUUCUTT against Ndrg4 | inactive: 1.7 |
| GGGUUUGAUUAGCUUAAUUTT against Olfr905 | inactive: 0.182 |
| GGUCUGAUAACUCUGGAGGTT against D11Moh34 | inactive: 0.0405 |
| GGAAGUGAAAGUGAAUUGGTT against Tia1 | inactive: 0.435 |
| GGAGUUCUGUCCAUUUUGATT against Olfr1198 | inactive: -0.0939 |
| GGAGAAGGAAGAGCUAAAGTT against Tpd52l1 | inactive: 0.418 |
| GGUCAGAAGUCCUUACUGGTT against Cyp2d10 | inactive: -0.391 |
| GCACUGAAAGUCUCGAAAGTT against 2410137M14Rik | inactive: -0.00462 |
| GUCAAAUAUCCAUUAGAAGTT against Abpg | inactive: -0.429 |
| GCGACUGACACUAACAGAATT against Wdr51a | inactive: -0.446 |
| GGUUGGUGAUGGCACAAACTT against Cct8 | inactive: -3.22 |
| GGACACUGUCCAGAAGUUGTT against 1110007A06Rik | inactive: 0.962 |
| CCAAGCAGAAAAGUUCCUUTT against Tcfe2a | inactive: -1.16 |
| GGCACUACAACGGAACUCATT against Slco5a1 | inactive: -2.64 |
| GGUGGAGGUGUGAUGGAUUTT against Slamf1 | inactive: -1.2 |
| GGUGCAGAGCUUGAGAUGATT against 2700067D09Rik | inactive: -0.0465 |
| GGCAAUGGAAGUUGGAACATT against Ptch1 | inactive: -0.82 |
| GCUAGUUUUUCAGAUUUCATT against Timm22 | inactive: 1.06 |
| GCUAAUAUUGUCGAUGUUATT against Ptger4 | inactive: -2.21 |

Part of the list above, with tabs.
Sequence	z-score
CGAACAGAUGCUUAAUGUCTT against 4930542G03Rik	inactive: 0.895
AUAGUGGAACCCUUUGUACTT against Olfr1195	inactive: 0.509
CCACCAUGUUUUAUUCCAATT against 2010001H14Rik	inactive: -1.57
GGUGACACCCAGAAUGAGCTT against Htatsf1	inactive: -0.0177
GCGGACUAGCAGAGCUAUUTT against Dgkq	inactive: -0.988
GCUACUUCAUGGAAUCUUCTT against Mrgprb8	inactive: -0.283

Random excerpt: 4 records from the list, in no set order.

| Sequence | z-score |
| --- | --- |
| GGACACUGUCCAGAAGUUGTT against 1110007A06Rik | inactive: 0.962 |
| GGAAAAGAGCUCGUCUCAGTT against Il15 | inactive: 0.67 |
| GGCAGAAGAAAUCUUAAAUTT against Dnali1 | inactive: 0.593 |
| GCAGACGAAUAAAUAGCUGTT against Capza1 | inactive: 1.21 |

— PubChem BioAssay AID1347423 (Functional Genomics Laboratory (NCATS/FGL), 2020)
